# In PubChem BioAssay AID2685 (National Center for Advancing Translational Sciences (NCATS), 2010):
# The other results are listed elsewhere or left out. The main result of the screen is listed elsewhere. These columns were measured beside it and carry no call. The list favours compounds with an active or inconclusive main result. The note in brackets gives the kind of curve behind each potency; many fits are weak.
# Assay: qHTS Assay for Lipid Storage Modulators in Drosophila S3 Cells;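 on cell number change: cells counted by Cell Tracker Red CMTPX staining in the red channel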
# Settings: BODIPY lipid droplet fluorescence, 18-24 h; for cell number change: measured here: cell count max response, cells fed with added oleic acid
# Summary of the method: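 Drosophila S3 cells loaded with oleic acid (400 uM, as added) and compounds at several concentrations; lipid droplets imaged by 488-nm laser-scanning cytometry, 500–530 nm intensity and object ratio to cell channel. Percent activity normalized to 20 uM Triacsin C.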
# [1] = measured here: lipid fluorescence (Fed channel) AC50, cells fed with added oleic acid
# [2] = measured here: cell number channel AC50, cells fed with added oleic acid
Structure (SMILES),cell number change [%],AC50 [1],AC50 [2]
CC(=O)Nc1ccccc1S(=O)(=O)CC1CC1(Cl)Cl (configuration not stated),13.5,"29.1 µM [rising, single point]",–
O=C(N/N=C/c1cccc([N+](=O)[O-])c1)c1cccc2cc[nH]c12,32.4,"0.82 µM [rising, full curve]","1.3 µM [rising, full curve, poor fit]"
O=C(Oc1ccc2ccc(=O)oc2c1)c1ccc([N+](=O)[O-])cc1,-8.56,"0.731 µM [rising, full curve]",–
CC1(C)Cc2c(sc3nc(SCC(=O)O)nc(N)c23)CO1,33.4,"29.1 µM [rising, partial curve]","0.82 µM [rising, full curve, poor fit]"
Cc1ccc(-n2ncc3c(NCc4ccccn4)ncnc32)c(C)c1,-35.3,"32.6 µM [falling, single point]","29.1 µM [falling, single point]"
COc1ccc(CCNc2c(N)n(Cc3ccccc3)c(=O)[nH]c2=O)cc1OC,15.1,"5.8 µM [rising, single point]","2.91 µM [rising, single point]"
O=C(c1ccccc1)c1cc(F)c(N2CCOCC2)cc1Cl,49.8,"6.51 µM [falling, partial curve, poor fit]","29.1 µM [rising, single point]"
CCOC(=O)CN1C(=O)C(=O)N(Cc2c(Cl)cccc2Cl)C1=O,-25.2,"2.91 µM [falling, partial curve, poor fit]","2.31 µM [falling, full curve, poor fit]"
OCCC1CN(Cc2nc3ccccc3[nH]2)CCN1C1CCCC1 (configuration not stated),13.3,"1.03 µM [falling, full curve]",–
O=C(Nc1ccc2c(c1)OCCO2)c1ccc(Br)cc1,0.702,"0.461 µM [falling, full curve]",–
COC(=O)N1C(=O)[C@](c2ccsc2)(C(C)C)N1C(=O)OC,12.6,"0.58 µM [rising, single point]",–
Cc1cc(Br)ccc1OCCN1CC(C)OC(C)C1 (configuration not stated),-12,"6.51 µM [falling, single point]","3.66 µM [falling, single point]"
COc1ccc(NC(=O)CS(=O)CC(=O)NC2CCCc3ccccc32)cc1 (configuration not stated),-11.9,"29.1 µM [rising, single point]",–
COc1ccc(-c2cc(C)no2)cc1S(=O)(=O)NCCCN(C)Cc1ccccc1,6.92,"14.6 µM [rising, partial curve]",–
O=C(Nc1ccc(CN2CCOCC2)cc1)c1cc(Br)ccc1Cl,17.5,"29.1 µM [rising, single point]",–
CCCn1c(NC(=O)c2cccc(S(=O)(=O)N3CCCC3)c2)nc2ccccc21,–,"25.9 µM [falling, single point]",–
O=C(c1cccs1)N(Cc1nc2sc3c(c2c(=O)[nH]1)CCCC3)C1CCCC1,-36.6,"16.4 µM [falling, partial curve]","29.1 µM [falling, single point]"
COc1ccccc1N1C(=O)N(CC(=O)C(C)(C)C)c2ccccc2S1(=O)=O,10.6,"11.6 µM [rising, single point]",–
c1ccc(CCn2nnnc2C(c2cccnc2)N2CCN(c3ccccc3)CC2)cc1 (configuration not stated),31.1,"6.51 µM [rising, partial curve]","1.16 µM [rising, partial curve, poor fit]"

# Shown tab-delimited: 2 of the compounds above.
Structure (SMILES)	cell number change [%]	AC50 [1]	AC50 [2]
COc1ccc(CCNc2c(N)n(Cc3ccccc3)c(=O)[nH]c2=O)cc1OC	15.1	5.8 µM [rising, single point]	2.91 µM [rising, single point]
O=C(c1ccccc1)c1cc(F)c(N2CCOCC2)cc1Cl	49.8	6.51 µM [falling, partial curve, poor fit]	29.1 µM [rising, single point]

# (more compounds)

Structure (SMILES),cell number change [%],AC50 [1],AC50 [2]
O=C(CCn1c(=S)[nH]c2cc3c(cc2c1=O)OCO3)NCc1ccccc1Cl,-12.5,–,–
CCN(CC)S(=O)(=O)c1cc(NS(=O)(=O)c2cccc(C(=O)O)c2)ccc1C,5.63,–,–
CC(C)OC(=O)C(C)Oc1ccc(C(=O)NCCc2ccccc2)cc1 (configuration not stated),11.9,–,–
O=C(Nc1nnc(-c2ccco2)s1)C1CCN(S(=O)(=O)c2ccc(Cl)cc2)CC1,-1.58,–,–
COC(=O)c1ccc(Oc2cc(C)nc(SC)n2)cc1,-20.1,–,–
COc1cc(C(=O)NNC(=S)NC(=O)c2ccc3c(c2)OCO3)cc(OC)c1OC,32.9,"29.1 µM [rising, single point]",–
CCCCC(CC)COC(=O)c1ccc(N(C)C)cc1 (configuration not stated),22.1,"9.2 µM [rising, partial curve, poor fit]",–
O=C(NCc1cccnc1)C1CCCN(S(=O)(=O)c2ccc(Br)cc2)C1 (configuration not stated),3.11,"18.4 µM [rising, partial curve]",–
O=C(Nc1ccc(Cl)cn1)C1CCCN1S(=O)(=O)c1ccccc1 (configuration not stated),-16.4,"0.00461 µM [falling, full curve, poor fit]",–
Cc1ccccc1NC(=O)NCC1CCCO1 (configuration not stated),0.844,"0.651 µM [rising, single point]",–
CN(C)S(=O)(=O)c1ccc(C(=O)NCC(C)(C)CN=C2NS(=O)(=O)c3ccccc32)cc1,11.7,–,–
CN(C)CCNC(=O)c1ccc(-c2nn(C)c(=O)c3ccccc23)cc1,-4.45,"2.31 µM [falling, partial curve]","0.651 µM [falling, single point]"
Cc1cccc(NC2SC(=O)NC2=O)c1 (configuration not stated),-26.5,–,–
Cc1ccc(C(c2nnnn2C2CCCCC2)N2CCc3ccccc32)cc1 (configuration not stated),-32.6,"18.4 µM [falling, single point]","14.6 µM [falling, single point]"
Cc1ccc(/C=N/NC(=O)c2nnn(-c3nonc3N)c2CSc2ccccc2)s1,31.7,–,–
CCCCCCCOC(=O)C1=C(C)Nc2ncnn2C1c1cccs1 (configuration not stated),34.7,–,"1.64 µM [rising, full curve, poor fit]"
COc1cc(S(=O)(=O)N2CCCCCC2)c(OC)cc1Br,10.2,"1.84 µM [falling, partial curve, poor fit]",–
COc1ccc(C(=O)OC2CCCCC2CN(C)C)cc1 (configuration not stated),18.3,–,–
COC(=O)C1=C(C(=O)OC)[C@@H]2N(C)c3ccccc3[C@@]23C[C@@H](C(=O)OC)N(C(=O)C2CCC2)C3=N1,-17,"0.13 µM [falling, full curve, poor fit]",–
